Primary screen of a compound library

By UniProt entry, the sequences of proteins in these tests, tags left out.
UniProt E9BF75, entry or part of it: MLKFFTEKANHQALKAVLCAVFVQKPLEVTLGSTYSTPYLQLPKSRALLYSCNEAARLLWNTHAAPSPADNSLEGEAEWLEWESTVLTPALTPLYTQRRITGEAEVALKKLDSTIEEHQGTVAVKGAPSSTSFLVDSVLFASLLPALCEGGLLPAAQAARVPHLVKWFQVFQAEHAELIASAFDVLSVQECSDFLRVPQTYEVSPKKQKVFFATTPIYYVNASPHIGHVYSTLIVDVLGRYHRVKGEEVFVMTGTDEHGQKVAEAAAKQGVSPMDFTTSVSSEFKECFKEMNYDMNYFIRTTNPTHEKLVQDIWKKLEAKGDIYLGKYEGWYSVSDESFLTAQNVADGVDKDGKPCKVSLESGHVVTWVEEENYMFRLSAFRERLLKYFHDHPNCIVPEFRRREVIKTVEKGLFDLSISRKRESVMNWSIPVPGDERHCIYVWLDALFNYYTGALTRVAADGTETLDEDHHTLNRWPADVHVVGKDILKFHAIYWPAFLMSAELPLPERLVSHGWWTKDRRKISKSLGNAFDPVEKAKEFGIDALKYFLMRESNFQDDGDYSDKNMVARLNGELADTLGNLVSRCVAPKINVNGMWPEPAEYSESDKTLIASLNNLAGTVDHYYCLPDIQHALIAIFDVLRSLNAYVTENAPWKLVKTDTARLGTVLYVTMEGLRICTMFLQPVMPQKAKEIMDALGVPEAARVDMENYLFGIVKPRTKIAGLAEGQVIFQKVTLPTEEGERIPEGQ

Measurements from “University of Dundee, Small-Polar-MMV Screening Library” (2021), ChEMBL document CHEMBL3988442.

Results are percentages, as filed.
How 0% and 100% were set is not recorded. Most values in the screen are low, and negative values occur.
This is an unselected part of the compounds tested.

Mtb heat-shock: 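Assay on Mycobacterium tuberculosis, filed only as a heat shock assay from Cornell; the read-out is not stated. The concentration is filed as 10 mM, unlikely as a test dose, so the dose is not known. Higher reads as stronger inhibition (inferred: compounds with an IC50 in retests scored well above the rest). Size under these conditions: about 69,000 compounds, about 930 of them at 50% or above in at least one test.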
LdMetRS: 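Primary screen of methionyl-tRNA synthetase; the read-out is not stated. Target: Methionyl-tRNA synthetase (putative), Leishmania donovani (UniProt E9BF75). The test concentration is not given. The values are filed as inhibition. Of about 68,000 compounds tested this way, about 24 (0.035%) reached 50% or more in at least one test.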

{"compound": "Cc1ncc(CN(C)C(=O)Nc2cccc(N3CCNC3=O)c2)s1", "Mtb heat-shock": 31.44, "LdMetRS": 11.7}
{"compound": "CCOCCn1c(=O)n(CCC=C(C)C)c2cc(C(=O)O)cnc21", "Mtb heat-shock": -0.5498, "LdMetRS": 12.2}
{"compound": "Cc1nc(CN2CCN(C3CCOC3)Cc3cccnc32)cs1", "stereo": "stereo not shown", "LdMetRS": 7.801}
{"compound": "CC(=O)N[C@H]1CCO[C@@H](c2cccc(NC(=O)Cc3ccccc3)c2)C1", "Mtb heat-shock": -29.63, "LdMetRS": 5.233}
{"compound": "CN(CC1Cc2ccccc2CN1C)C(=O)CSc1ccccn1", "stereo": "stereo not shown", "Mtb heat-shock": 2.534, "LdMetRS": 9.355}
{"compound": "CC(C)c1n[nH]c(C2CN(C(=O)COc3ccc(F)cc3)CCO2)n1", "stereo": "stereo not shown", "Mtb heat-shock": 5.288, "LdMetRS": 3.876}
{"compound": "c1cnc(N2CCN(Cc3nnnn3C3CC3)CC2)nc1", "Mtb heat-shock": 21.3, "LdMetRS": 7.246}
{"compound": "COc1ccc(OC)c(C2CCN(c3ccc4cc[nH]c4n3)C2)c1", "stereo": "stereo not shown", "Mtb heat-shock": 103.8, "LdMetRS": 39.66}
{"compound": "O=C1CCc2cc(NC(=O)C3CCCN3c3nccs3)ccc2N1", "stereo": "stereo not shown", "Mtb heat-shock": 2.905, "LdMetRS": 11.22}
{"compound": "CCOC(=O)CSc1nnc([C@@H](N)C(C)C)o1.Cl", "Mtb heat-shock": -3.757}
{"compound": "NCCn1cc(C(=O)N2CCNC(=O)C2c2cccc(F)c2)nn1", "stereo": "stereo not shown", "Mtb heat-shock": -1.692, "LdMetRS": 15.79}
{"compound": "CC(C(=O)N1CCCC1)N1CCC(c2nccn2CC2CCC2)CC1", "stereo": "stereo not shown", "Mtb heat-shock": -0.3272, "LdMetRS": 17.78}
{"compound": "c1cnc(N2CCC(NCc3cnc(C4CCC4)s3)CC2)nc1", "Mtb heat-shock": 1.319, "LdMetRS": 7.796}
{"compound": "c1csc(CNc2ccccc2Cn2cncn2)c1", "Mtb heat-shock": -16.29, "LdMetRS": 4.144}
{"compound": "Cc1cccc2nc(CN3CCC(N4CCN(C)C4=O)CC3)cn12", "Mtb heat-shock": -0.2014, "LdMetRS": 14.29}
{"compound": "CS(=O)(=O)NCc1nnc2n1CCN(CC1CC1)C2", "Mtb heat-shock": -6.194, "LdMetRS": 19.19}
{"compound": "COc1ccccc1CNC(=O)N1CCCC(NS(C)(=O)=O)C1", "stereo": "stereo not shown", "Mtb heat-shock": -10.22, "LdMetRS": 2.778}
{"compound": "COCC(=O)N1CCCC1c1cccc(Cc2ccccc2F)n1", "stereo": "stereo not shown", "Mtb heat-shock": -12.2, "LdMetRS": 11.46}
{"compound": "CN1CCC(N2CCOC[C@H]2c2nc(C(C)(C)C)c[nH]2)CC1", "Mtb heat-shock": -21.7, "LdMetRS": 11.86}
{"compound": "CC(=O)N1CCC(c2nnc3ccc(C(=O)NCC(C)C)cn23)C1", "stereo": "stereo not shown", "Mtb heat-shock": -11.48, "LdMetRS": 5.042}
{"compound": "c1cncc(-c2ccc3c(c2)CCC32CCN(Cc3nccs3)CC2)c1", "LdMetRS": 12.78}
{"compound": "CC1=N[C@@]2(CC[C@@H]3CN(Cc4ccccc4F)C[C@@H]32)C(=O)N1CC1CC1", "LdMetRS": 17.14}
{"compound": "CC1(C)[C@H]2CC=C(CN3CCCn4nc(CNS(C)(=O)=O)cc4C3)[C@@H]1C2", "LdMetRS": 12.1}
{"compound": "CC1CN(Cc2ccccn2)CCN1c1ccc2nncn2n1", "stereo": "stereo not shown", "Mtb heat-shock": -16.91, "LdMetRS": 12.82}
{"compound": "Cc1nc(CN(C)CC(c2cccs2)N2CCOCC2)no1", "stereo": "stereo not shown", "Mtb heat-shock": -8.603, "LdMetRS": 22.35}
{"compound": "CC(C)Cc1nc(CN2CCCC2Cn2cncn2)no1", "stereo": "stereo not shown", "Mtb heat-shock": 5.059, "LdMetRS": 19.13}
{"compound": "COc1ccc2c(c1)nc1n2[C@@H](CNCc2cnn(C)c2)COC1", "Mtb heat-shock": 5.897, "LdMetRS": -3.297}
{"compound": "O=C(O)C(F)(F)F.O=C(O)C(F)(F)F.c1cc(CN2CCc3ncc(CN4CCCCC4)n3CC2)cs1", "Mtb heat-shock": -20.06}
{"compound": "CCNC(=O)C1CCCN1S(=O)(=O)c1sc(=O)[nH]c1C", "stereo": "stereo not shown", "Mtb heat-shock": -12.37, "LdMetRS": 15.57}
{"compound": "CN(C)C1CN(C(=O)Nc2cccc(OC(F)F)c2)C1", "Mtb heat-shock": 5.563, "LdMetRS": 13.61}
{"compound": "CC(=O)N1CCCN(Cc2csc(C)n2)c2ccccc21", "Mtb heat-shock": -7.537, "LdMetRS": 4.57}
{"compound": "CC(C)(C)c1ccc(C2(C(=O)NCCCS(C)(=O)=O)CC2)cc1", "Mtb heat-shock": -26.37, "LdMetRS": 12.6}
{"compound": "Cc1nc(-c2ccccc2C)n(CC(=O)NC(C)C2CC2)n1", "stereo": "stereo not shown", "Mtb heat-shock": -8.102, "LdMetRS": 4.712}
{"compound": "COc1cccc(OCC2CCCN(C(=O)c3cnc(C)nc3O)C2)c1", "stereo": "stereo not shown", "Mtb heat-shock": 6.634, "LdMetRS": 16.3}
{"compound": "CCCSCC(=O)NCc1cccc(CN(C)CC)c1", "Mtb heat-shock": 6.513, "LdMetRS": 12.7}
{"compound": "CS(=O)(=O)c1cn[nH]c1C1CCCN(C(=O)Cn2cccn2)C1", "stereo": "stereo not shown", "Mtb heat-shock": 9.112, "LdMetRS": 7.742}
{"compound": "OC1(CNC2CCN(Cc3ccncc3)CC2)CCc2ccccc21", "stereo": "stereo not shown", "Mtb heat-shock": -0.6344, "LdMetRS": 3.846}
{"compound": "COCCC(C)NC(=O)c1cc(Br)c2c(c1)OCCO2", "stereo": "stereo not shown", "Mtb heat-shock": -5.537, "LdMetRS": 18.21}
{"compound": "CC[C@H]1COCCN1C(=O)c1cnc(N2CCN(C)CC2)nc1C", "Mtb heat-shock": -13.37, "LdMetRS": 13.77}
{"compound": "CC1(C)CNC(=O)c2nc(C3CCCN(S(C)(=O)=O)C3)[nH]c2C1", "stereo": "stereo not shown", "Mtb heat-shock": 6.402, "LdMetRS": 17.71}
{"compound": "Cc1ccc(C(=O)N(C)Cc2cc(C)on2)cn1", "Mtb heat-shock": -4.052, "LdMetRS": 8.382}
{"compound": "C=C(C)CN(CC)C(=O)CN(C)C1CCc2ccccc21", "stereo": "stereo not shown", "Mtb heat-shock": -18.09, "LdMetRS": 20.22}
{"compound": "CCc1nnc2n1CCN(C(C(=O)NC1CC1)c1ccc(F)cc1)C2", "stereo": "stereo not shown", "Mtb heat-shock": 22.7, "LdMetRS": 13.5}
{"compound": "Cc1c(C(=O)N2CCC3(CCCNC3=O)C2)sc2nc[nH]c(=O)c12", "stereo": "stereo not shown", "Mtb heat-shock": 15.81, "LdMetRS": 10.84}
{"compound": "c1cc(-c2cnc(NC3CC3)nc2[C@H]2CCCO2)ccn1", "Mtb heat-shock": 11.03, "LdMetRS": 12.03}
{"compound": "CC(C)c1n[nH]c(C(=O)Nc2ccncc2)c1Br", "Mtb heat-shock": 14.67, "LdMetRS": 8.92}
{"compound": "CCn1ccnc1CN1CCN(CCC(=O)NC2CCCCC2)CC1", "Mtb heat-shock": 24.85, "LdMetRS": 4.211}

Some entries from above, unchanged:

Compound,Mtb heat-shock,LdMetRS
CCNC(=O)C1CCCN1S(=O)(=O)c1sc(=O)[nH]c1C (stereo not shown),-12.37,15.57
CC(=O)N1CCCN(Cc2csc(C)n2)c2ccccc21,-7.537,4.57
CCc1nnc2n1CCN(C(C(=O)NC1CC1)c1ccc(F)cc1)C2 (stereo not shown),22.7,13.5
O=C1CCc2cc(NC(=O)C3CCCN3c3nccs3)ccc2N1 (stereo not shown),2.905,11.22
CS(=O)(=O)NCc1nnc2n1CCN(CC1CC1)C2,-6.194,19.19
CC1CN(Cc2ccccn2)CCN1c1ccc2nncn2n1 (stereo not shown),-16.91,12.82